Data as given in PubChem BioAssay AID743454 (Peter MacCallum Cancer Centre, 2014).
Purpose: 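Search for knock-downs that restore vorinostat killing in resistant colon cancer cells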 (primary screen). System: human HCT116-VR colon cancer cells, selected for vorinostat resistance. Reagents: siRNA pool against human genes, 40 nM siRNA pool. Duration: vorinostat for 24 h, read-out about 72 h after transfection. Treatment: vorinostat at 2.5 µM final. Detection: 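Two measures, CellTiter-Fluor viability and luminescent caspase 3/7 activity, each as fold change against same-plate mock wells, mean of duplicates, then screen-wide robust z-score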. Direction: viability robust z-score: higher = more viable cells than screen typical; caspase robust z-score: higher = more caspase 3/7 activity than screen typical. Active means: 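Hits are knock-downs in viability class RV1/RV2 or caspase class CA1/CA2, excluding ones that killed cells in the no-drug cell-count arm; hits then retested with single siRNAs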.
The deposit covers about 18,000 reagents; below is an unselected part. In the full data, 450 (2.5%) got an active call. 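Single biological run; no consistent viability z cut-off exists, so the class columns, not z-scores, define the calls.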

How did the screen score ZNF775?
viability hit class: no change; caspase hit class: no change; viability robust z-score: -1.06; caspase robust z-score: 0.5; activity call: inactive

With FKBP1B, what was measured?
viability hit class: no change; caspase hit class: no change; viability robust z-score: 1.66; caspase robust z-score: 0.54; activity call: inactive

For PSMC5, what was measured?
viability hit class: no change; caspase hit class: no change; viability robust z-score: -4.81; caspase robust z-score: 1.5; activity call: inactive

What did the screen give for NAT2?
viability hit class: no change; caspase hit class: no change; viability robust z-score: 0.72; caspase robust z-score: -0.09; activity call: inactive

How did the screen score NDUFS2?
viability hit class: no change; caspase hit class: no change; viability robust z-score: -0.32; caspase robust z-score: -0.34; activity call: inactive

For MUC21, what does the deposit list?
viability hit class: no change; caspase hit class: no change; viability robust z-score: 0.85; caspase robust z-score: -0.2; activity call: inactive

What did the screen give for SLC25A30?
viability hit class: no change; caspase hit class: no change; viability robust z-score: -0.62; caspase robust z-score: -0.2; activity call: inactive

For MTMR4, what was measured?
viability hit class: no change; caspase hit class: no change; viability robust z-score: 0.05; caspase robust z-score: -0.76; activity call: inactive

How did the screen score RIOX1?
viability hit class: no change; caspase hit class: no change; viability robust z-score: 0.22; caspase robust z-score: -0.36; activity call: inactive

With ST18, what does the deposit list?
viability hit class: no change; caspase hit class: no change; viability robust z-score: 0.28; caspase robust z-score: -0.74; activity call: inactive

How did the screen score PABPN1?
viability hit class: no change; caspase hit class: no change; viability robust z-score: -0.43; caspase robust z-score: 3.6; activity call: inactive

How did the screen score PSMC3?
viability hit class: no change; caspase hit class: no change; viability robust z-score: -4.66; caspase robust z-score: 1.14; activity call: inactive

Which result is listed for CHRNA10?
viability hit class: no change; caspase hit class: no change; viability robust z-score: -0.17; caspase robust z-score: -0.77; activity call: inactive

With IKZF4, what does the deposit list?
viability hit class: no change; caspase hit class: no change; viability robust z-score: -1.55; caspase robust z-score: 0.11; activity call: inactive

For MKRN2, what was measured?
viability hit class: no change; caspase hit class: no change; viability robust z-score: -1.33; caspase robust z-score: 0.96; activity call: inactive

For IGLL1, how do the results read?
viability hit class: no change; caspase hit class: no change; viability robust z-score: 0.55; caspase robust z-score: 0.66; activity call: inactive

For HEATR4, how do the results read?
viability hit class: no change; caspase hit class: no change; viability robust z-score: 0.9; caspase robust z-score: 0.09; activity call: inactive

Targets listed so far whose target name starts with N or n (2):
NAT2 — viability hit class = no change; caspase hit class = no change; viability robust z-score = 0.72; caspase robust z-score = -0.09; activity call = inactive
NDUFS2 — viability hit class = no change; caspase hit class = no change; viability robust z-score = -0.32; caspase robust z-score = -0.34; activity call = inactive

More records follow.
For GLYCTK, what was measured?
viability hit class: no change; caspase hit class: CA2 (caspase activation); viability robust z-score: -0.82; caspase robust z-score: 6.92; activity call: active

How did the screen score ZNF85?
viability hit class: no change; caspase hit class: no change; viability robust z-score: 0.72; caspase robust z-score: 0.34; activity call: inactive

What is on record for EFNA4?
viability hit class: no change; caspase hit class: no change; viability robust z-score: 1.22; caspase robust z-score: 0.98; activity call: inactive

For H2AC11, what was measured?
viability hit class: no change; caspase hit class: no change; viability robust z-score: -0.26; caspase robust z-score: 3.19; activity call: inactive

For STAT4, how do the results read?
viability hit class: no change; caspase hit class: no change; viability robust z-score: 0.77; caspase robust z-score: 0.2; activity call: inactive

What is on record for MYBPHL?
viability hit class: no change; caspase hit class: no change; viability robust z-score: -1.24; caspase robust z-score: 4.04; activity call: inactive

With RBM43, what was measured?
viability hit class: no change; caspase hit class: no change; viability robust z-score: -0.38; caspase robust z-score: 1.39; activity call: inactive

What is on record for SLC49A4?
viability hit class: no change; caspase hit class: no change; viability robust z-score: 1.29; caspase robust z-score: -0.6; activity call: inactive

For RAB19, how do the results read?
viability hit class: no change; caspase hit class: no change; viability robust z-score: 0.63; caspase robust z-score: 2.62; activity call: inactive

With GRK1, how do the results read?
viability hit class: no change; caspase hit class: no change; viability robust z-score: 0.21; caspase robust z-score: -0.38; activity call: inactive
